{
  "source": "patent US12496346B2",
  "about": "“Phospholipid-flavagline conjugates and methods of using the same for targeted cancer therapy” (Cellectar Biosciences, Inc., priority 2019, dated 2025)",
  "key": {"[1]": {"tested_on": "A375 (human malignant melanoma)", "experiment": "In vitro cytotoxicity of CLR 1899", "assay_type": "cell-based", "conditions": "read-out: Conc. at half maximal activity"}, "MCF-7 xenograft model": {"tested_on": "MCF-7 xenograft model", "experiment": "In vivo efficacy in MCF-7 xenograft model", "set-up": "species or system mice", "conditions": "compared with docetaxel, FIG. 13"}, "[2]": {"tested_on": "A549 (human lung adenocarcinoma)", "experiment": "In vitro cytotoxicity of CLR 1899", "assay_type": "cell-based", "conditions": "read-out: Conc. at half maximal activity"}, "MCF7": {"tested_on": "MCF7", "experiment": "In vitro cytotoxicity of CLR 1899", "assay_type": "cell-based", "conditions": "read-out: Conc. at half maximal activity"}, "[3]": {"tested_on": "HCT 116 (human colon cancer)", "experiment": "In vitro cytotoxicity of CLR 1899", "assay_type": "cell-based", "conditions": "HCT116; read-out: Conc. at half maximal activity"}, "[4]": {"tested_on": "NHDF (normal human dermal fibroblasts)", "experiment": "In vitro cytotoxicity of CLR 1899", "assay_type": "cell-based", "conditions": "read-out: Conc. at half maximal activity", "description": "CLR 1899 was administered to cell lines A375 (human malignant melanoma), A549 (human lung adenocarcinoma), HCT 116 (human colon cancer), and NHDF (normal human dermal fibroblasts)."}},
  "note": "At least one compound was matched to its structure with a doubt left.",
  "data": [
    {"smiles": "COC(=O)[C@H]1[C@@H](O)[C@@]2(O)c3c(OC)cc(OCCCCNC(=O)CNC(=O)CNC(=O)CNC(=O)c4ccc(CCCCCCCCCCCCCCCCCCOP(=O)([O-])OCC[N+](C)(C)C)cc4)cc3O[C@@]2(c2ccc(OC)cc2)[C@@H]1c1ccccc1", "note": "[CLR 1899]", "values": [
      {"measurement": "EC50", "setting": "[1]", "result": 205, "unit": "nM"},
      {"measurement": "activity in stopping or slowing tumor growth", "setting": "MCF-7 xenograft model", "result": "equivalent activity as docetaxel"},
      {"measurement": "EC50", "setting": "[2]", "result": 656, "unit": "nM"},
      {"measurement": "EC50", "setting": "MCF7", "result": 1050, "unit": "nM"},
      {"measurement": "EC50", "setting": "[3]", "result": 545, "unit": "nM"},
      {"measurement": "EC50", "setting": "[4]", "result": 186, "unit": "nM"}
    ]}
  ]
}
